Assay [1] deals with cytoplasmic FMRP-interacting protein 2 (CYFIP2), mouse (mouse (endogenous in hippocampus)) (UniProt Q5SQX6). Description: co-IP.
For assay [2] the target is unchanged. Briefly: co-IP. The source holds these as a separate data set.

Sequences of proteins named here, by UniProt entry; tags and fusion partners are left off.
UniProt Q5SQX6: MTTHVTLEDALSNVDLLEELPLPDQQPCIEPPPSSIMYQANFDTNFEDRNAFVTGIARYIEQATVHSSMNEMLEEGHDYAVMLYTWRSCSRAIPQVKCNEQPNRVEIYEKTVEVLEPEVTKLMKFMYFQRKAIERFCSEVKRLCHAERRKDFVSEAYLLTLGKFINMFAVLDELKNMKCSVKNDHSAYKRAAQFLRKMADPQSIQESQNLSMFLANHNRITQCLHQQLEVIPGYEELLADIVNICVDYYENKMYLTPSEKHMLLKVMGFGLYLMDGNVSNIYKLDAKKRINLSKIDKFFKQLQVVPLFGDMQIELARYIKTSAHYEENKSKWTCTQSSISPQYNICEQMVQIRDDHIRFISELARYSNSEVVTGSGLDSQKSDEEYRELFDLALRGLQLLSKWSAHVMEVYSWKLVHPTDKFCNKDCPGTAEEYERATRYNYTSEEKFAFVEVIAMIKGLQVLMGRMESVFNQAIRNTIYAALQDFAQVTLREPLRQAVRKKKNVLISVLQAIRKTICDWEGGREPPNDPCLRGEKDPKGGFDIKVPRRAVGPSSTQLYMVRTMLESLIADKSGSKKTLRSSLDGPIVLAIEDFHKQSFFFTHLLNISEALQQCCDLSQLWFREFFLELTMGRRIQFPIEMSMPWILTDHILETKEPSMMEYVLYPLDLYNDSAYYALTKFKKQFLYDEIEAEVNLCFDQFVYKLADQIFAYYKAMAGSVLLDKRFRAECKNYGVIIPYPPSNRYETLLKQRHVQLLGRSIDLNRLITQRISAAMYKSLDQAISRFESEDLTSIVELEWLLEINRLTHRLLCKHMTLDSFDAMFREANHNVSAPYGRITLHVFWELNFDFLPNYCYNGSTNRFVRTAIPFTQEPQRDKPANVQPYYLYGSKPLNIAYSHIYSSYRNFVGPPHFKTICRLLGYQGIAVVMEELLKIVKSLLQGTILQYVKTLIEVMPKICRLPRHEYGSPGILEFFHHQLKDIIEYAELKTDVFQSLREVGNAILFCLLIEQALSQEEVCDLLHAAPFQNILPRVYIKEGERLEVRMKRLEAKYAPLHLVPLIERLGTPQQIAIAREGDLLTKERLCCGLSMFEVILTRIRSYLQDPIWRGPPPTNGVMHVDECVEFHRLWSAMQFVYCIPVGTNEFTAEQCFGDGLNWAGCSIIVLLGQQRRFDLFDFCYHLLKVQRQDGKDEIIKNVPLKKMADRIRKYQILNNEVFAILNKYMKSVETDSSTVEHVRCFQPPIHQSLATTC
UniProt P63073: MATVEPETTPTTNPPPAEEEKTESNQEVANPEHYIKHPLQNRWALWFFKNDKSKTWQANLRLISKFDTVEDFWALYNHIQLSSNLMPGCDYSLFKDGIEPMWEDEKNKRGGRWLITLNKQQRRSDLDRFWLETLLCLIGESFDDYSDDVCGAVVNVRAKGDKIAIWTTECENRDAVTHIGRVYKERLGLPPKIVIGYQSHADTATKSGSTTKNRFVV

Where two headings read alike, the source gives them in different places. Results are given in words; binding and its absence hold for the method and conditions named. In cells and extracts the contact can be indirect. Some entries that bind do so weakly or less than the wild type.

Regarding “eukaryotic initiation factor 4E (eIF4E), mouse (from UniProt P63073 1-217)”, the binding result in assay [1] and in assay [2] was “binds” each time.

For the origin of these results see publication doi:10.1101/2019.12.20.884783.
